Laboratory results: US20250313619A1, “RISANKIZUMAB COMPOSITIONS” (ABBVIE INC., priority 0001, published 2025)

What was measured:
[1] = Tryptic peptide map analysis of aglycosylated Fc; conditions: XIC peak areas
[2] = Glycan profiling by 2-AB labeling and HILIC-FL; conditions: for % Fucosylated Complex Oligosaccharides / % High mannose glycan: Process 4 batches
[3] = 2-AB labeling, HILIC-FL, sum of peaks

DS1-001
Aglycosylation (%) [1]: 1.4%

DS1-002
Aglycosylation (%) [1]: 1.4%

DS1-RS1: Process 1 reference standard [reference compound]
Aglycosylation (%) [1]: 1.2%

DS2-001
Aglycosylation (%) [1]: 1.6%

DS2-002
Aglycosylation (%) [1]: 1.5%

DS2-003
Aglycosylation (%) [1]: 1.4%

DS4-001: risankizumab Process 4 drug substance batch
Aglycosylation (%) [1]: 0.8%

DS4-002: risankizumab Process 4 drug substance batch
Aglycosylation (%) [1]: 0.9%

DS4-003: risankizumab Process 4 drug substance batch
Peak 1 G0F-GlcNAc (A1FG0) Peak Area Percentage ([2]; 2-AB labeling, HILIC-FL): 1.8% | Peak 2 G0F (A2FG0) Peak Area Percentage ([2]; 2-AB labeling, HILIC-FL): 63.9% | Peak 3 Man 5 Peak Area Percentage ([2]; 2-AB labeling, HILIC-FL): 2.7% | Peak 4 G1F(a) (A2F[6]G1) Peak Area Percentage ([2]; 2-AB labeling, HILIC-FL): 17.0% | Peak 5 G1F(b) (A2F[3]G1) Peak Area Percentage ([2]; 2-AB labeling, HILIC-FL): 6.4% | Peak 6 Man 6 Peak Area Percentage ([2]; 2-AB labeling, HILIC-FL): 0.4% | Peak 7 G2F (A2FG2) Peak Area Percentage ([2]; 2-AB labeling, HILIC-FL): 1.8% | Peak 8 Man 7 Peak Area Percentage ([2]; 2-AB labeling, HILIC-FL): 0.5% | Fucosylated biantennary oligosaccharide (Peaks 1, 2, 4, 5, 7) Peak Area Percentage [2, 3]: 90.9% | Man 5 + 6 + 7 (Peaks 3, 6, 8) Peak Area Percentage [2, 3]: 3.6%

DS4-003DS4-003
Aglycosylation (%) [1]: 1.4%

DS4-004: risankizumab Process 4 drug substance batch
Aglycosylation (%) [1]: 1.0%

GMP1
% Fucosylated Complex Oligosaccharides [2]: 89.8% | % High mannose glycan [2]: 4.0%

GMP2
% Fucosylated Complex Oligosaccharides [2]: 90.2% | % High mannose glycan [2]: 4.1%

GMP3
% Fucosylated Complex Oligosaccharides [2]: 90.9% | % High mannose glycan [2]: 3.6%

GMP4
% Fucosylated Complex Oligosaccharides [2]: 89.8% | % High mannose glycan [2]: 4.1%
